This assay concerns the target Spa2(1-535) (S. cerevisiae (budding yeast)) (UniProt P23201). Put plainly: SPR; Biacore T200, Spa2 variant immobilised on CM5 by amine coupling, the same variant flowed over at 0.15625-20 μM; room temperature; 20 mM HEPES, 50 mM NaCl pH 7.4; bivalent analyte model; for Spa2(1-535) and Spa2(281-535) association between dimers; both purified. In general terms: Surface plasmon resonance follows binding to a sensor surface in real time, without labels.

These are yes or no findings as the source states them, for the method shown. Some binding calls cover weakened binding; strength is not graded here.

Binding data for one substance are collected here from publication PMC11130202.

In the case of “Spa2(1-535) (from UniProt P23201 1-535) (domain or fragment)”, the binding entry was “binds weakly”.
